{"source": "PubChem BioAssay AID504786 – Drosophila RNAi Screening Center – 2011", "test": "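Knock-downs reducing HIF reporter induction by the iron chelator DFO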 (primary screen)", "cells": "Drosophila S2 cells with a stable HIF luciferase reporter", "reagents": "long dsRNA against Drosophila genes, about 0.2 µg dsRNA per well of a 384-well plate", "duration": "three days of knock-down, then 20 h of DFO before reading", "conditions": "desferrioxamine (DFO) at 100 µM, an iron chelator that mimics hypoxia, for 20 h", "measurement": "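Firefly luciferase driven by the mouse ldh-a hypoxia-response element, measured after 20 h of 100 µM DFO; z-scores per plate, higher means more signal lost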", "scale": "z-score: higher = stronger loss of HIF reporter signal", "note": "The deposit covers about 21,000 reagents; shown is a random part of those that have a named target and a result. 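Primary screen; positive scores mean lost reporter signal, so the sign may be inverted from the usual convention.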 Reagents against one gene are numbered here."}
{"predicted target":"CG32655","dsRNA no.":1,"z-score, replicate 1":-0.4,"z-score, replicate 2":-0.2}
{"predicted target":"CG7220","dsRNA no.":1,"z-score, replicate 1":-0.3,"z-score, replicate 2":-0.3}
{"predicted target":"CG7220","dsRNA no.":2,"z-score, replicate 1":-0.4,"z-score, replicate 2":-0.2}
{"predicted target":"CG13408","dsRNA no.":1,"z-score, replicate 1":0.1,"z-score, replicate 2":-0.1}
{"predicted target":"CG13408","dsRNA no.":2,"z-score, replicate 1":-0.4,"z-score, replicate 2":-0.3}
{"predicted target":"ZAP3","dsRNA no.":1,"z-score, replicate 1":0,"z-score, replicate 2":0.7}
{"predicted target":"ZAP3","dsRNA no.":2,"z-score, replicate 1":-0.1,"z-score, replicate 2":-0.1}
{"predicted target":"ZAP3","dsRNA no.":3,"z-score, replicate 1":0.3,"z-score, replicate 2":0.5}
{"predicted target":"CG14984","dsRNA no.":1,"z-score, replicate 1":-0.2,"z-score, replicate 2":-0.6}

Records listed so far whose gene name begins with Z or z (3):
{"predicted target":"ZAP3","dsRNA no.":1,"z-score, replicate 1":0,"z-score, replicate 2":0.7}
{"predicted target":"ZAP3","dsRNA no.":2,"z-score, replicate 1":-0.1,"z-score, replicate 2":-0.1}
{"predicted target":"ZAP3","dsRNA no.":3,"z-score, replicate 1":0.3,"z-score, replicate 2":0.5}

The listing continues.
{"predicted target":"SLC22A (SLC22A family member)","dsRNA no.":1,"z-score, replicate 1":-0.2,"z-score, replicate 2":-0.1}
{"predicted target":"SLC22A (SLC22A family member)","dsRNA no.":2,"z-score, replicate 1":-0.3,"z-score, replicate 2":0.1}
{"predicted target":"Tnpo (Transportin)","dsRNA no.":1,"z-score, replicate 1":-0.5,"z-score, replicate 2":-0.4}
{"predicted target":"Lcp65Aa","dsRNA no.":1,"z-score, replicate 1":-0.4,"z-score, replicate 2":-0.8}
{"predicted target":"Lsm12a (LSM12 homolog a)","dsRNA no.":1,"z-score, replicate 1":0.1,"z-score, replicate 2":0.4}
{"predicted target":"CG5080","dsRNA no.":1,"z-score, replicate 1":-0.2,"z-score, replicate 2":-0.3}
{"predicted target":"mei-W68 (meiotic W68)","dsRNA no.":1,"z-score, replicate 1":-0.4,"z-score, replicate 2":-0.3}
